No constants are given. Whether binding was seen depends on the method and setting. Some binding calls cover weakened binding; strength is not graded here.
Target: T1, CD70 trimer complex (human) (UniProt P32970)
T1 sequence (chain, site-specifically biotinylated via co-expression with BirA): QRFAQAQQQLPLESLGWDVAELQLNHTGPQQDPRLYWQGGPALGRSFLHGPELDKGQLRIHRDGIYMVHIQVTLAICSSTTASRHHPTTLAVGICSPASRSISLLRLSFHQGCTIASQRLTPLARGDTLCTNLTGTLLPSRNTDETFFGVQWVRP
Assay: SPR (Biacore T200), biotinylated CD70 trimer mutants captured on CAP surface, 100 nM Fab as analyte

- binding: binds
B1: anti-CD70 antibody clone 8C8, Fab (Fab, V domains shown)
VH: EVQLVESGGGLVKPGGSLRLSCVASGFTFSSYSMNWVRQFPGKGLEWVSSISTSSNYIHYADSLQGRFTISRDNAKNSLYLQMSSLRVEDTAVYYCVRDKGTTLTNWYFDLWGRGTLVTVSS
VL: DMQMTQSPSSLSASVGDRVTLTCRASQGISNYLAWFQLKPGKVPKLLIYAASTLQSGVPSRFSGSGSGTDFALTISSLQPEDVATYYCQKYNSAPLTFGGGTKVEIK

Source: patent publication US20220409665A1
